Consider one molecule from article PMC6791870, “Switch of the interactions between the ribosomal stalk and EF1A in the GTP- and GDP-bound conformations” (Scientific Reports, 2019).

Results are given in words; binding and its absence hold for the method and conditions named.

The assay has as its target T1, 11-mer peptide lacking the C-terminal 3 amino acids of the 14-mer peptide (PhoP1C14∆3), FITC-labelled (P. horikoshii).
T1 sequence (peptide, fluorescein isothiocyanate (FITC) at the N-terminus): SEEEALAGLSA
Nature of the assay: fluorescence polarisation; FITC-labelled peptide (50 nM) with 0-160 µM PhoEF1A•GTP•PfuPelota complex in FP buffer (20 mM HEPES-KOH pH 7.6, 10 mM MgCl2, 150 mM KCl, 0.1 mg/ml BSA), 25 °C; one site specific binding fit; both purified.

B1: PhoEF1A•GTP•PfuPelota complex (complex, UniProt O59153 1-428; Q8U150 1-356)
chain 1: MPKEKPHVNIVFIGHVDHGKSTTIGRLLYDTGNIPETIIKKFEEMGEKGKSFKFAWVMDRLKEERERGITIDVAHTKFETPHRYITIIDAPGHRDFVKNMITGASQADAAVLVVAATDGVMPQTKEHAFLARTLGIKHIIVTINKMDMVNYDQKVFEKVKAQVEKLLKTLGYKDFPVIPTSAWNGDNVVKKSDKMPWYNGPTLIEALDQIPEPEKPIDKPLRIPIQDVYSIKGVGTVPVGRVETGKLKVGDVVIFEPASTIFHKPIQGEVKSIEMHHEPLQEALPGDNIGFNVRGVSKNDIKRGDVAGHTDKPPTVVRTKDTFKAQIIVLNHPTAITVGYSPVLHAHTAQIPVRFEQILAKVDPRTGNIVEENPQFIKTGDSAIVVLRPMKPVVLEPVKEIPQLGRFAIRDMGMTIAAGMVISIQKGE
chain 2: MEILEEKPKEGKIKIKAETLDDLWHLYHIISEGDVVYAKTLRKQAQRSDSLRPEKVEAVPVFLGIKAEKINLHRFANQLRITGPIIYASREDVPLGRYHTLTVEPGTVITIQKEKWKNYHIERLKEAIESSKKARVMIVAIEDGEAEIAIVREYGLDFVGSITYNISGKRYNIKRDDEEKKFFHEVAKSMEELMKRENIEKAIVAGPGFYKENFVNFLRENYPELAKKVVTDDTSMGGRTGIYEVIKRGTVDKVYTESRISKEIKLVEKVIEEIAKNGLVAYGLKEVEEATNYGAVETLIVLDSLLKGELREKIEELMELARNLRASVVVVSSEHEGGDKLKALGGIAALLRFKIK
As for B1, the binding result is on record as “no binding (tested: 160 µM)”.
